Reference: PubChem BioAssay AID1259308 (NCATS, 2017)

- Purpose: 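Candidate targets for better recombinant protein yield in mammalian cells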 (primary screen)
- Cell system: human HEK293 embryonic kidney cells stably expressing firefly luciferase (HEK-CMV-Luc2-Hygro)
- Reagent: single siRNA against human genes, 0.8 pmol siRNA per well
- Duration: 72 h
- Detection: 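Reporter luminescence and viable-cell signal on separate replicate plates, given as percent of non-targeting control and median/MAD z-scores, plus per-cell luciferase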
- Direction: total luciferase, z-score and total luciferase, % of control: higher = more reporter protein produced; luciferase per cell, z-score: higher = more reporter output per viable cell
- Call rule: 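An siRNA counts as active if its total luciferase robust z-score exceeds 3; genes with two or more such siRNAs out of three were retested with fresh siRNAs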
- Calls: active = raised luciferase; inactive = no rise
In all, the deposit lists about 59,000 reagents; shown is an unselected part. Of all reagents, about 1,510 (2.6%) were called active. 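Calls use total luciferase alone and ignore viability, so some active siRNAs may act by altering cell number.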 A number with no mark means an inactive call. Not all columns of the deposit are shown. Reagent sequences are not shown.

The first 2 entries as a preview:
| target gene | PubChem SID | total luciferase, z-score | total luciferase, % of control | luciferase per cell, z-score |
| --- | --- | --- | --- | --- |
| SLC35F5 | SID160750285 | 0.672 | 95.3 | 1.11 |
| SLC35F5 | SID160750286 | 0.152 | 84.9 | 1.15 |

The listing, from the start:
| target gene | PubChem SID | total luciferase, z-score | total luciferase, % of control | luciferase per cell, z-score |
| --- | --- | --- | --- | --- |
| SLC35F5 | SID160750285 | 0.672 | 95.3 | 1.11 |
| SLC35F5 | SID160750286 | 0.152 | 84.9 | 1.15 |
| SLC35F5 | SID160750287 | -0.256 | 76.8 | -0.0461 |
| PCDHGA4 (protocadherin gamma subfamily A, 4) | SID160744794 | 0.684 | 95.5 | 0.341 |
| PCDHGA4 (protocadherin gamma subfamily A, 4) | SID160744796 | -0.33 | 75.3 | 0.133 |
| PCDHGA4 (protocadherin gamma subfamily A, 4) | SID160744797 | 1.37 | 109 | 0.848 |
| ICA1 (islet cell autoantigen 1) | SID160733073 | 0.0494 | 82.9 | 0.163 |
| ICA1 (islet cell autoantigen 1) | SID160775495 | -0.857 | 64.8 | -0.859 |
| ICA1 (islet cell autoantigen 1) | SID160775496 | -0.412 | 73.7 | 0.0108 |
| SLC68A1 | SID160749596 | 1.41 | 110 | 1.07 |
| SLC68A1 | SID160749597 | 2.68 | 135 | 1.98 |
| SLC68A1 | SID160749598 | 3.02 (active) | 142 | 2.91 |
| CAPG (capping actin protein, gelsolin like) | SID160735020 | 0.679 | 95.4 | 0.788 |
| CAPG (capping actin protein, gelsolin like) | SID160736257 | 1.26 | 107 | 2.17 |
| CAPG (capping actin protein, gelsolin like) | SID160736268 | -1.09 | 60.2 | -0.645 |
| CDH7 (cadherin 7) | SID160740512 | -1.35 | 55 | -1.5 |
| CDH7 (cadherin 7) | SID160740523 | 0.79 | 97.6 | 0.281 |
| CDH7 (cadherin 7) | SID160740533 | -0.564 | 70.7 | -0.313 |
| ZBTB47 (zinc finger and BTB domain containing 47) | SID160754413 | -0.663 | 68.7 | -0.805 |
| ZBTB47 (zinc finger and BTB domain containing 47) | SID160754414 | 0.455 | 90.9 | 0.885 |
| ZBTB47 (zinc finger and BTB domain containing 47) | SID160754415 | -2.55 | 31.2 | -3.08 |
| RAPGEF6 (Rap guanine nucleotide exchange factor 6) | SID160741289 | 0.908 | 99.9 | 0.0198 |
| RAPGEF6 (Rap guanine nucleotide exchange factor 6) | SID160741290 | 0.425 | 90.3 | 0.0891 |
| RAPGEF6 (Rap guanine nucleotide exchange factor 6) | SID160741291 | -0.137 | 79.2 | -0.553 |
